Measurements reported in PMC9855333, “1-(Arylsulfonyl-isoindol-2-yl)piperazines as 5-HT6R Antagonists: Mechanochemical Synthesis, In Vitro Pharmacological Properties and Glioprotective Activity” (Biomolecules, 2022).

Experiment: Metabolic stability in rat liver microsomes (RLM)

- Metabolic Stability Major Metabolite (RLM, protein concentration 0.5 mg/mL): not detected
- half-life at 20 µM (male, rat, microsomes, pH 7.4): 379 min
- microsomal CLint at 20 µM (male, rat, microsomes, pH 7.4): 3.65 µL/min/mg
SMILES: COc1cc2c(cc1OC)C(=O)C(CC1CCN(Cc3ccccc3)CC1)C2 (stereo not drawn) [Donepezil, reference compound]
